Source: PubChem BioAssay AID493014 (National Center for Advancing Translational Sciences (NCATS), 2011)
Some of the results follow. The main result of the screen is listed elsewhere. These columns were measured beside it and carry no call. The list favours compounds with an active or inconclusive main result. The note in brackets gives the kind of curve behind each potency; many fits are weak.

Assay: qHTS Assay to Find Inhibitors of Chronic Active B-Cell Receptor Signaling
Conditions: ABC-DLBCL IkBa-CBG/CBR reporter, luminescence ratio (green luciferase fused to IkBa over red control in TMD8 lymphoma cells), 4 h
Procedure, shortened: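 Doxycycline induced both beetle luciferases in TMD8 lymphoma cells; IKK-driven degradation limits the IkappaBalpha-fused green signal, while red luminescence normalises for cell number and nonspecific effects. Compounds tested up to 46 uM, 4 hrs.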

[1] = measured here: CBR red luminescence, cell number
[2] = measured here: IkBa-CBG green luminescence

Row | SMILES | AC50 [1] | AC50 [2]
1 | Cc1ccc(N2C(=O)N3[C@H](c4ccc(F)cc4)[C@@H]4C(=O)N(C5CCCCC5)C(=O)[C@@H]4[C@]3(C)C2=O)cc1 | 12.6 µM [falling, partial curve] | –
2 | O=C(CSc1ncccc1C(=O)Oc1ccccc1Cl)Nc1ccccc1Cl | 1.26 µM [rising, partial curve, poor fit] | –
3 | O=C(Cc1ccc(F)cc1)OCN1C(=O)c2ccccc2C1=O | 35.5 µM [falling, single point] | –
4 | COc1ccc(OC)c(-c2csc(N(C)C(=O)Cc3ccccc3)n2)c1 | 0.178 µM [rising, full curve, poor fit] | –
5 | O=C1CCc2cc(S(=O)(=O)NC(C(=O)N3CCN(c4ccccn4)CC3)c3ccccc3)ccc2N1 (configuration not stated) | 12.6 µM [falling, partial curve, poor fit] | –
6 | N#C/C(=C\c1ccc(C#N)cc1)C(=O)c1ccccc1 | 4.47 µM [falling, full curve, poor fit] | –
7 | Cc1c(Cl)cccc1NC(=O)CSc1nc(=O)n(Cc2ccco2)c2c1CCC2 | 25.1 µM [falling, single point] | –
8 | CCOC(=O)N1CCN(C(=O)c2ccc3nc4ccc(Cl)cc4c(=O)n3c2)CC1 | 6.51 µM [rising, full curve, poor fit] | –
9 | CC(=O)Nc1nc(C2COc3ccccc3O2)cs1 (configuration not stated) | 0.103 µM [rising, full curve, poor fit] | –
10 | COC(=O)c1c(C)[nH]c(C(=O)OCC(=O)NCC(C)C)c1C | 14.6 µM [falling, partial curve, poor fit] | –
11 | COC(=O)C(NC(=O)c1ccccc1C)(Nc1ncc(S(=O)(=O)c2ccc([N+](=O)[O-])cc2)s1)C(F)(F)F (configuration not stated) | 35.5 µM [falling, single point] | –
12 | COc1ccc(C(=O)N/N=C/c2sc(=O)n(Cc3cccc(C(=O)O)c3)c2Cl)cc1 | 10 µM [falling, partial curve, poor fit] | –
13 | Brc1ccc(-c2ccc(/C=N/Nc3nncc(-c4ccccc4)n3)o2)cc1 | 2.59 µM [falling, full curve, poor fit] | –
14 | COc1ccccc1N1CCN(C(=O)CSc2ncnc3scc(-c4ccccc4)c23)CC1 | 0.231 µM [rising, full curve, poor fit] | –
15 | COc1ccccc1CNCC(O)(c1ccc(F)cc1)c1ccc(F)cc1 | 17.8 µM [falling, single point] | –
16 | Cc1nc2c(cnn2-c2ccccc2)c(=O)n1/N=C/c1ccccc1 | 35.5 µM [rising, single point] | –
17 | Cc1cc(NC(=O)CSCC(=O)Nc2nc3c(C)cccc3s2)no1 | 11.6 µM [falling, partial curve, poor fit] | –
18 | Cc1cc(NCc2ccco2)nc2cc(O)ccc12 | 11.6 µM [rising, partial curve] | –
19 | COc1ccc(OCC(=O)Nc2cccc(OC)c2)cc1 | 4.61 µM [falling, full curve] | 29.1 µM [rising, partial curve, poor fit]

Row | SMILES | AC50 [1] | AC50 [2]
20 | Cc1ccc(S(=O)(=O)c2nc(-c3ccccc3Cl)oc2NCCCN2CCOCC2)cc1 | 7.08 µM [falling, partial curve] | –
21 | c1ccc2c(c1)OCC(CNCC1COc3ccccc3O1)O2 (configuration not stated) | 20 µM [rising, partial curve, poor fit] | –
22 | Cc1nnc2ccc(-c3ccc(NS(=O)(=O)c4ccc(F)cc4F)cc3)nn12 | 14.6 µM [rising, partial curve] | 16.4 µM [falling, partial curve, poor fit]
23 | Cn1ccnc1Sc1ccc(/C=N/NC(=O)c2ccccc2O)cc1[N+](=O)[O-] | 16.4 µM [falling, partial curve] | –
24 | CSCCC(NC(N)=O)C(=O)NCc1cccc(Cl)c1 (configuration not stated) | 2.06 µM [rising, partial curve, poor fit] | –
25 | Cc1ccc(NC(=O)CSc2nnc(-c3n[nH]c4ccccc34)n2-c2ccccc2)c(C)c1 | 13 µM [falling, partial curve] | 14.6 µM [rising, partial curve, poor fit]
26 | Cc1cc(NS(=O)(=O)c2ccc(NC(=O)CCCOc3cccc(C)c3C)cc2)no1 | 15.8 µM [falling, partial curve, poor fit] | –
27 | COc1ccc(C2=Nn3c(nnc3-c3ccccn3)SC2)cc1OC | 35.5 µM [rising, single point] | 14.1 µM [falling, partial curve]
28 | CCCCC1(C(=O)OC)NC(c2ccc(O)cc2)C2C(=O)N(c3ccccc3)C(=O)C21 (configuration not stated) | 35.5 µM [rising, partial curve, poor fit] | –
29 | CN1C(=O)c2cccc(NCCCN3C(=O)c4ccccc4C3=O)c2C1=O | 29.1 µM [rising, single point] | –
30 | COC(=O)c1sc2nc(SCC(=O)N(C)c3ccccc3)n(N)c(=O)c2c1C | 2.51 µM [rising, partial curve, poor fit] | –
31 | COc1ccc(/C(N)=N/OC(=O)/C=C/c2ccccc2)cc1 | 35.5 µM [rising, partial curve, poor fit] | –
32 | Cc1ccc(S(=O)(=O)N2CCN(C(=O)C3CCCCC3)CC2)cc1 | 35.5 µM [falling, single point] | –
33 | COc1ccc(-c2ccnc3c(C#N)cnn23)cc1 | 2.51 µM [rising, partial curve, poor fit] | –
34 | CCn1c(C(=O)OC)cc2c1ccn2-c1ccc(F)cc1 | 6.51 µM [falling, single point] | –
35 | CC(=O)c1cc(CN2CCN(Cc3ccccc3)C(CCO)C2)cs1 (configuration not stated) | 0.631 µM [falling, partial curve, poor fit] | –
36 | Cc1ccc(C)c(Sc2ccc(S(=O)(=O)Nc3ccc(C(=O)O)cc3)cc2)c1 | 16.4 µM [rising, single point] | –
37 | CCN(CC)S(=O)(=O)c1cc(C)c(C)cc1Br | 16.4 µM [rising, partial curve] | –
38 | CCCCn1c(=O)cc(N2CCOCC2)[nH]c1=O | 0.0231 µM [rising, full curve, poor fit] | –

Whole records, looked up by structure. Order of values: AC50 [1] | AC50 [2]
COc1ccc(/C(N)=N/OC(=O)/C=C/c2ccccc2)cc1 is listed with 35.5 µM [rising, partial curve, poor fit] | –
CCCCC1(C(=O)OC)NC(c2ccc(O)cc2)C2C(=O)N(c3ccccc3)C(=O)C21 (configuration not stated) is listed with 35.5 µM [rising, partial curve, poor fit] | –
